Numbering of substitutions follows the chain as printed. Numbers in names are those of the source. These are yes or no findings as the source states them, for the method shown. For part of these data: In cells and extracts the contact can be indirect. Some entries that bind do so weakly or less than the wild type. For part of these data: Sequences can lack the tags named with a protein.
Tests used:
[1] = target: T1, Trx1 C33S single mutant (thiol-trapping mutant), His-tagged (S. cerevisiae) (UniProt P22217); assay: pull-down
T1 sequence: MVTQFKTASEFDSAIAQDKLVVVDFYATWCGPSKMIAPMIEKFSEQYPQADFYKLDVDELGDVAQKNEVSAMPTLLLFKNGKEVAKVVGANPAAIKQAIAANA

[2] = target: T2, Thioredoxin 1 (Trx1), His-tagged, wild type (S. cerevisiae) (UniProt P22217); assay: pull-down
T2 sequence: T1 sequence with S33C

[3] = target: T3, Tim10, endogenous in isolated yeast mitochondria (S. cerevisiae (endogenous in yeast mitochondria)) (UniProt P87108); assay: native gel or EMSA
T3 sequence: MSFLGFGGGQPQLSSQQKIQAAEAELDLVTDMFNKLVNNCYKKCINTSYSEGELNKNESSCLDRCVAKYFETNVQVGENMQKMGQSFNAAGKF

[4] = target: T4, Mia40, endogenous in isolated yeast mitochondria (S. cerevisiae (endogenous in yeast mitochondria)) (UniProt P36046); assay: native gel or EMSA
T4 sequence: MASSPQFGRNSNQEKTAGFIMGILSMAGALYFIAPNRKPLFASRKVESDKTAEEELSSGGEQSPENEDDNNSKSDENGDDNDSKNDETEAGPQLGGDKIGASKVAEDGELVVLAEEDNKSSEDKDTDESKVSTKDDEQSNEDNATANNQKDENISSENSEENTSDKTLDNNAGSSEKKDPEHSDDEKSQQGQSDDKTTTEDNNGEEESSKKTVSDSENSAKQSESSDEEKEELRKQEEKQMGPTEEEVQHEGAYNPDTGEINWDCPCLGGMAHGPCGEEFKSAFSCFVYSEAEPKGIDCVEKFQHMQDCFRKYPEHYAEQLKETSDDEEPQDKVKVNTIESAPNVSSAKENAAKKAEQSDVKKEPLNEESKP

[5] = target: T4, Mia40, endogenous in isolated yeast mitochondria (S. cerevisiae (endogenous in yeast mitochondria)); assay: non-reducing SDS-PAGE of a mixed disulfide intermediate

B1: Mia40, endogenous in isolated yeast mitochondria (protein, UniProt P36046 32-403)
chain: T4 sequence
For B1, the binding [1] was “binds” and the binding [2] was “binds”.

B2: Erv1, endogenous in isolated yeast mitochondria (protein, UniProt P27882 1-189)
chain: MKAIDKMTDNPPQEGLSGRKIIYDEDGKPCRSCNTLLDFQYVTGKISNGLKNLSSNGKLAGTGALTGEASELMPGSRTYRKVDPPDVEQLGRSSWTLLHSVAASYPAQPTDQQKGEMKQFLNIFSHIYPCNWCAKDFEKYIRENAPQVESREELGRWMCEAHNKVNKKLRKPKFDCNFWEKRWKDGWDE
In the case of B2, the binding [2] is reported as “binds weakly”.

B3: Tim9, 35S-labelled precursor (protein, UniProt O74700 1-87)
chain: MDALNSKEQQEFQKVVEQKQMKDFMRLYSNLVERCFTDCVNDFTTSKLTNKEQTCIMKCSEKFLKHSERVGQRFQEQNAALGQGLGR
modifications: 35S-labelled
In the case of B3, the binding [3] is reported as “binds” and the binding [4] is reported as “binds”.

B4: Tim10(C65S), 35S-labelled (protein, UniProt P87108 1-93)
chain: T3 sequence with C65S
modifications: 35S-labelled
For B4, the binding [5] was “binds”.

— publication doi:10.1101/2021.06.22.449413
